The nature of the test: qHTS Assay to Find Inhibitors of Chronic Active B-Cell Receptor Signaling. Particulars: ABC-DLBCL IkBa-CBG/CBR reporter, luminescence ratio (green luciferase fused to IkBa over red control in TMD8 lymphoma cells), 4 h. The essentials: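 Doxycycline induced both beetle luciferases in TMD8 lymphoma cells; IKK-driven degradation limits the IkappaBalpha-fused green signal, while red luminescence normalises for cell number and nonspecific effects. Compounds tested up to 46 uM, 4 hrs.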
In general terms: In qHTS, concentration-response curves come from the screen itself.

[1] abbreviates: measured here: CBR red luminescence, cell number.
Where [2] appears, read: measured here: IkBa-CBG green luminescence.

What is called AC50 is the midpoint of the concentration-response curve, whichever way the signal moves.

The list shows a part of the results. These are further read-outs of the screen, such as a control signal, another cell line or another target. No call is given for them. The list favours compounds with an active or inconclusive main result. The note in brackets gives the kind of curve behind each potency; many fits are weak.

Consider `COc1ccc(CN(C(=O)c2ccc(-c3ccccc3)[nH]2)C(C(=O)NC(C)(C)C)c2ccncc2)cc1` (configuration not stated), for which the AC50 under setting [1] was 35.5 µM [falling, single point] and the concentration at half-maximal activity (AC50) under setting [2] is 22.4 µM [rising, partial curve, poor fit].
`COc1ccc(C(=O)/C=C/c2ccc(N3CCCCC3)c([N+](=O)[O-])c2)cc1`: the AC50 under setting [1] was 29.1 µM [falling, partial curve, poor fit].
On the same count and under the same terms, then `Cc1ccc(NC(=S)N(CCCN2CCN(C)CC2)Cc2cccs2)cc1C`, with 12.6 µM [falling, single point]; and `CCn1c(SCC(=O)c2ccccc2)nnc1-c1cccs1`, with 15.8 µM [falling, single point].
Take `O=S(=O)(CCc1ccncc1)C1Cc2cccc3cccc1c23` (configuration not stated): the AC50 under setting [1] was 20 µM [falling, single point].
As for `Cc1ccc(Cn2nnc3c(=O)[nH]c(C4CCN(S(=O)(=O)Cc5ccccc5)CC4)nc32)cc1`, the AC50 under setting [1] was 11.2 µM [falling, partial curve].
Still for that read-out and setting: the figure for `C/C(=N\NC(=O)c1ccccc1)c1ccc(C)c([N+](=O)[O-])c1` is 18.4 µM [falling, single point]; for `CN(C1CCCC1)C1CCN(C(=O)CNC(=O)/C=C/c2cccc(C(F)(F)F)c2)CC1` it is 28.2 µM [rising, single point].
Regarding `O=C(OCC(=O)N1CCN(c2ccccc2)CC1)c1ccccc1NCCO`, the AC50 under setting [1] is 23.1 µM [falling, single point].
With `Cc1c(NC(=S)NC(=O)C(c2ccccc2)c2ccccc2)cccc1C(=O)O`, the AC50 reads like this: under setting [1], 7.94 µM [rising, partial curve]; under setting [2], 11.2 µM [falling, partial curve].
As for `c1ccc(-c2csc(Nc3ncccn3)n2)cc1`, under setting [1], the concentration at half-maximal activity (AC50) was 1.3 µM [falling, full curve, poor fit].
On the same count and under the same terms, then `COC(=O)CSc1nnc(CNS(=O)(=O)c2ccc(C)cc2)n1C`, with 6.31 µM [falling, single point].
Take `C#CCOCCOCCOCCNc1nc(N2CCN(C(=O)CCCCCCCCCCNC(=O)[C@H]([C@@H](C)CC)n3cc(CCCCCN)nn3)CC2)nc(N2CCN(C(=O)CCCCCCCCCCNC(=O)[C@H](CCCCN)n3cc(CCCC(=O)O)nn3)CC2)n1`: the AC50 by setting is: under setting [1], 23.1 µM [rising, partial curve]; under setting [2], 25.9 µM [falling, partial curve, poor fit].
In the case of `COC(=O)C1=C(C)N=C2SC(C)C(=O)N2C1c1ccc(C(=O)OC)cc1` (configuration not stated), the AC50 under setting [1] was 1.41 µM [rising, partial curve].
Same read-out and setting: then `Cc1ccc(-c2nc(-c3nccc4ccccc34)oc2-c2ccccc2)cc1`, with 2.82 µM [falling, full curve]; and `NC(=O)c1c(Nc2nc3c(F)cccc3s2)sc2c1CCCC2`, with 29.1 µM [falling, single point]; and `COc1ccc(C(=O)Sc2ccc(C)cc2)cc1OC`, with 1.46 µM [rising, partial curve, poor fit].
The same measure, in the same setting: the figure for `CCC(CO)Oc1cc(NCc2ccc(OC)cc2)c2ncn(C(C)C)c2c1` (configuration not stated) is 0.291 µM [rising, full curve, poor fit]; for `O=C(CCN1C(=O)CSC1=O)Nc1ccccc1` it is 0.92 µM [rising, full curve, poor fit].
Still for that read-out and setting: then `COc1cc(/C=C(\C#N)C(=O)NC2CCCCC2)ccc1OCc1ccc(C(=O)O)cc1`, with 10 µM [falling, partial curve, poor fit]; and `CCc1ccc(NC(=O)c2cc(C)no2)cc1`, with 0.0891 µM [rising, full curve, poor fit]; and `CCN1C(=O)/C(=C\N2CCN(c3ccccc3)CC2)SC1=S`, with 4.11 µM [rising, partial curve].
Take `CN(C)CCCN(C(=O)c1ccc2c(c1)CCCC2)c1nc2ccc(F)cc2s1`: under setting [1], the concentration at half-maximal activity (AC50) was 29.1 µM [falling, single point].
On the same count and under the same terms, then `Cc1ccn2c(C(=O)NNC(=O)Nc3ccc(Cl)cc3)c(C)nc2c1`, with 2.51 µM [rising, full curve]; and `O=C(CCc1ccccc1)N1CCN(c2ccc([N+](=O)[O-])cc2)CC1`, with 10 µM [falling, partial curve]; and `COc1cccc(OC)c1-c1nn2c(-c3ccco3)nnc2s1`, with 3.55 µM [rising, partial curve, poor fit].
On the same count and under the same terms, the figure for `CNS(=O)(=O)c1cccc(C(=O)OCC(=O)c2cc(C)n(CC3CCCO3)c2C)c1` (configuration not stated) is 18.4 µM [rising, single point].
Same read-out and setting: then `Cc1ccc(C[n+]2cc(-c3ccc(Cl)cc3)n3c2CCC3)cc1`, with 12.6 µM [falling, partial curve].
Regarding `O=C(Nc1ccc(N2CCOCC2)c(Cl)c1)c1ccco1`, the concentration at half-maximal activity (AC50) under setting [2] was 20.6 µM [falling, single point].
As for `CCN(CCCNc1ncnc2nc[nH]c12)c1cccc(C)c1`, the half-maximal activity concentration (AC50) under setting [1] was 4.11 µM [rising, single point].
Take `COc1cccc(C2(O)CCN(C(=O)C(C)C)CC2)c1`: the AC50 under setting [1] is 6.31 µM [rising, single point].
For `O=S(=O)(c1ccc2c(c1)OCCO2)C1CCC(S(=O)(=O)c2c(F)cccc2F)CC1` (configuration not stated), the AC50 under setting [1] is 2.06 µM [rising, partial curve, poor fit].
As to `C[C@]12c3[nH]c4ccc(Cl)cc4c3CCN1C(=O)[C@@H](CC(=O)NCc1ccco1)C[C@@H]2C(=O)N1CCCCC1`, the AC50 under setting [1] was 14.6 µM [falling, single point].
Consider `O=C(NC(=S)N1CCCc2ccccc21)c1ccc(Cl)cc1`, for which the AC50 under setting [1] was 0.58 µM [falling, full curve].
As for `Cc1cc2c(=O)oc(-c3ccc(Br)cc3)nc2s1`, under setting [1], the half-maximal activity concentration (AC50) is 3.16 µM [falling, full curve].
On to `Cc1ccc(NCc2cccnc2)cc1`, for which the AC50 under setting [1] is 8.2 µM [rising, partial curve, poor fit].
Take `CCOC(=O)/C(C#N)=N/Nc1ccccc1OC`: the AC50 under setting [1] was 4.11 µM [rising, single point].
Take `Cc1[nH]n(-c2ccccc2)c(=O)c1C=NC1CCCCC1`: the AC50 under setting [1] was 35.5 µM [falling, single point].
`COC(=O)c1ccccc1NC(=O)CN1CCC(n2nnc3cc(F)ccc32)CC1`: the AC50 under setting [1] was 29.1 µM [falling, single point].
Same read-out and setting: the figure for `CCn1c(-c2cc(-c3ccc(OC(C)C)cc3)nc3ccccc23)n[nH]c1=S` is 0.164 µM [falling, full curve, poor fit]; for `C/C(Cl)=C\COc1cc(C)nc2c(Br)cccc12` it is 4.47 µM [rising, partial curve]; for `CC1CN(C(=O)COC(=O)c2ccc(F)cc2Cl)CC(C)O1` (configuration not stated) it is 14.1 µM [rising, partial curve].
In the case of `C=CCOc1ccc(/C=N/NC(=O)c2cc3c(OC)cc(OC)cc3[nH]2)cc1`, the AC50 under setting [1] is 11.2 µM [falling, partial curve].
Same read-out and setting: the figure for `O=C(c1cc2cc(Br)ccc2o1)N1CCOCC1` is 5.01 µM [rising, partial curve].
On the same count and under the same terms, then `C=CCN(c1ccc(OC)cc1)S(=O)(=O)c1ccc(Cl)c(C(=O)OCC(=O)NC2CC2)c1`, with 3.98 µM [falling, partial curve, poor fit].
Consider `Cc1cc(N2CCCC2)ccc1/C=C1\NC(=S)N(C)C1=O`, for which the AC50 under setting [1] was 35.5 µM [falling, single point].
Turning to `COc1cc2c(cc1OC)C(/C(C#N)=N\O)=NC(C)(C)C2`, the AC50 reads like this: under setting [1], 14.6 µM [rising, partial curve]; under setting [2], 18.4 µM [falling, partial curve, poor fit].
Regarding `C=CCNC(=O)/C(C#N)=C/c1ccc2c(c1)OCCO2`, the concentration at half-maximal activity (AC50) under setting [1] is 35.5 µM [falling, single point].
The same measure, in the same setting: the figure for `CC(=O)Nc1ccc(NC2=C/C(=N/S(=O)(=O)c3cccs3)c3ccccc3C2=O)cc1` is 2.24 µM [falling, full curve, poor fit].
Regarding `C[C@@H]1C[C@H]2[C@@H]3CCC4=CC(=O)C=C[C@]4(C)[C@@]3(F)[C@@H](O)C[C@]2(C)[C@@]1(O)C(=O)CO`, the half-maximal activity concentration (AC50) under setting [1] is 0.00411 µM [rising, full curve, poor fit].
Still for that read-out and setting: then `CN(C)c1ccc(C2C3C(=O)N(c4ccc(C(=O)O)cc4)C(=O)C3ON2c2ccccc2)cc1` (configuration not stated), with 35.5 µM [falling, single point].
Consider `O=C(NCC1CCCO1)c1cc2nc(-c3ccco3)cc(C(F)(F)Cl)n2n1` (configuration not stated), for which the AC50 under setting [1] was 22.4 µM [falling, single point].
Still for that read-out and setting: then `Cc1oncc1-c1csc(-c2ccccc2)n1`, with 5.62 µM [rising, partial curve].
Regarding `O=c1c(-c2ccccc2)coc2cc(O)ccc12`, under setting [2], the AC50 was 3.98 µM [rising, partial curve, poor fit].
On to `Cc1cc(NCCCN)nc(-c2ccccc2O)n1`, for which, under setting [1], the AC50 was 20.6 µM [falling, partial curve].
On the same count and under the same terms, then `O=C(c1cc(-c2ccc(Br)cc2)on1)N1CCCC1`, with 2 µM [falling, full curve, poor fit].
On to `CC1CCc2nc(NC(=O)CSc3nc4ccccc4o3)sc2C1` (configuration not stated), for which, under setting [1], the AC50 is 29.1 µM [rising, single point].
`O=C(CCCCCN1C(=O)c2cccc3cccc(c23)C1=O)NCc1cccnc1`: the concentration at half-maximal activity (AC50) under setting [1] is 3.98 µM [falling, full curve].
`Cc1nn2c(C(F)(F)F)cc(-c3ccc(Cl)cc3)nc2c1C(=O)N1CCOCC1`: under setting [1], the AC50 is 17.8 µM [rising, partial curve, poor fit].
Still for that read-out and setting: the figure for `C=CCNC(=S)N1CCC(Cc2ccccc2)CC1` is 1.26 µM [rising, full curve]; for `COc1ccc(C2C3=C(CCCC3=O)Nc3ccc4ncccc4c32)cc1OC` (configuration not stated) it is 12.6 µM [rising, partial curve, poor fit].
Take `CCOc1cc(/C=N/NC(=S)Nc2ccccc2C(F)(F)F)ccc1OCC(=O)N1CCOCC1`: the AC50 runs as follows: under setting [1], 4.11 µM [rising, full curve, poor fit]; under setting [2], 18.4 µM [falling, single point].

The values above are taken from PubChem BioAssay AID493014 (National Center for Advancing Translational Sciences (NCATS), 2011).
